At least one compound was matched to its structure with a doubt left.
System: PBO-5/PBO-8 receptors
Assay: Two-electrode voltage clamp of Xenopus oocytes coinjected with PBO-5 and PBO-8 cRNA
Type: cell-based, C. elegans
Conditions: 1 mM ligand
Procedure: Capped RNA was prepared using the T7 mMessage mMachine kit (Ambion). Xenopus oocytes were collected and coinjected with 25 ng each of PBO-5 and PBO-8 cRNA and two-electrode voltage clamp recordings were performed 3-5 days post-injection. The standard bath solution for dose-response and control I-V experiments was Ringer's (in mM): 115 NaCl, 1.8 […], 10 Bis-Tris Propane (pH 7.4 Acetic acid). For dose-response experiments, each oocyte was subjected to a 5 second application of test pH (7.0 - 5.0) with 2 minutes of pH 7.4 wash between test applications.
Ion selectivity experiments: All points are responses to test pulse applications of pH 6.8 for 5 seconds. The reversal potential of PBO-5/PBO-8 expressing oocytes were first determined in standard Ringer's (in mM): 115 NaCl, 1.0 CaCl2, 10 Bis-Tris Propane (pH 7.4, acetic acid). For chloride permeability a simplified solution was used, chloride-free (in mM): 115 Na^+ gluconate, 1.0 CaCl2, 10 Bis-Tris Propane (pH 7.4 acetic acid). For Na^+ permeability a simplified solution was used, Na^+ free (in mM): 115 mM N-methyl D-glucamine (NMDG), 1.8 CaCl2, 10 Bis-Tris Propane (pH 7.4 acetic acid)). All solutions were brought to pH by addition of NaOH or acetic acid. […] Osmolarity was measured for each solution and was maintained at 240 mOsm by the addition of sucrose. […]

## CC(=O)OCC[N+](C)(C)C [acetylcholine]
  co-activation: pH 6.8 plus ligand compared with pH 6.8 only application: not significantly different

From US8232063B2, “H+-gated ion channel” (University of Utah Research Foundation, priority 2004, dated 2012)
